Test results from patent US20240175880A1.
No constants are given. Whether binding was seen depends on the method and setting. Some results given as binding are weak or reduced against the parent protein; the word gives no strength. Tags and fused reporters may be left off the sequences shown.

By UniProt entry, the sequences of proteins in these tests, tags left out. Residues count along the entry.
UniProt Q7Z5A7, residues 44-132: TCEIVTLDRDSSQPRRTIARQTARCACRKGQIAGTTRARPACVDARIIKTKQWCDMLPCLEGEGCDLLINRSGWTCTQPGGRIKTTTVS
UniProt M0R7X9, residues 44-132: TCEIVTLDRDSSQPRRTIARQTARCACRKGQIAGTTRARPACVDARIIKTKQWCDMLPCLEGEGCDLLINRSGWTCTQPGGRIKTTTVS
UniProt Q91WE9, residues 44-132: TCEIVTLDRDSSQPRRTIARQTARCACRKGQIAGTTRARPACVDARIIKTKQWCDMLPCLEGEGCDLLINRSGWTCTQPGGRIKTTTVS

Experiments:
[1] = biological target: FAM19A5 protein in human peripheral blood (human) (UniProt Q7Z5A7); test: sandwich ELISA, His-TEV-LRRC4B coated as capture, HRP-conjugated anti-FAM19A5 antibody as detector
[2] = biological target: FAM19A5 protein in the blood of cynomolgus monkeys (cynomolgus monkey); test: as above
[3] = biological target: FAM19A5 protein in the blood of marmoset monkeys (marmoset); test: as above
[4] = biological target: FAM19A5 protein in the blood of naive rats (rat) (UniProt M0R7X9); test: as above
[5] = biological target: FAM19A5 protein in the blood of naive wild-type mice (mouse) (UniProt Q91WE9); test: sandwich ELISA, His-TEV-LRRC4B coated as capture, HRP-conjugated anti-FAM19A5 antibody as detector; no signal in FAM19A5 knockout blood

Measured: binding

B1: LRRC4B peptide fragment conjugated to a His tag Tobacco Etch Virus (TEV) protease sequence (protein, UniProt Q9NT99 453-576, looked up, not shown: small tags and cut ends)
chain: VSAVDPVAAGGTGSGGGGPGGSGGVGGGSGGYTYFTTVTVETLETQPGEEALQPRGTEKEPPGPTTDGVWGGGRPGDAAGPASSSTTAPAPRSSRPTEKAFTVPITDVTENALKDLDDVMKTTK
binds: all assays above
